Data as given in publication PMC11065422.
These are yes or no findings as the source states them, for the method shown. Binding seen in cells or lysates may run through a third protein. Here binding means that the protein was enriched with, or labelled near, the bait; the list need not be complete.

B1: cAMP specific 3–5-cyclic phosphodiesterase 4D (enzyme, UniProt Q01063 1-747)
chain: MERDTCDVLSRSKSASEETLHSCNEEEDPFRGMEPYLVRRLSSRSIQLPPLAFRQLEQADLRSESENIPRPTSLPLKILPLIAVTSADSSGFDVDNGTSAGRSPLDPMTSPGSGLILQANFVHSQRRESFLYRSDSDYDLSPKSMSRNSSIASDIHGDDLIVTPFAQVLASLRTVRNNFAALTNLQDRAPSKRSPMCNQPSINKATITEEAYQKLASETLEELDWCLDQLETLQTRHSVSEMASNKFKRMLNRELTHLSEMSRSGNQVSEYISNTFLDKQHEVEIPSPTQKEKEKKKRPMSQISGVKKLMHSSSLTNSCIPRFGVKTEQEDVLAKELEDVNKWGLHVFRIAELSGNRPLTVIMHTIFQERDLLKTFKIPVDTLITYLMTLEDHYHADVAYHNNIHAADVVQSTHVLLSTPALEAVFTDLEILAAIFASAIHDVDHPGVSNQFLINTNSELALMYNDSSVLENHHLAVGFKLLQEENCDIFQNLTKKQRQSLRKMVIDIVLATDMSKHMNLLADLKTMVETKKVTSSGVLLLDNYSDRIQVLQNMVHCADLSNPTKPLQLYRQWTDRIMEEFFRQGDRERERGMEISPMCDKHNASVEKSQVGFIDYIVHPLWETWADLVHPDAQDILDTLEDNREWYQSTIPQSPSPAPDDQEEGRQGQTEKFQFELTLEEDCESDTEKDSGSQVEEDTSCSDSKTLCTQDSESTEIPLDEQVEEEAVAEEESQPETCVPDDCCPDT
B2: Septin 7 (protein, UniProt O55131 1-436)
chain: MSVSARSAAAEERSVNCGTMAQPKNLEGYVGFANLPNQVYRKSVKRGFEFTLMVVGESGLGKSTLINSLFLTDLYSPEYPGPSHRIKKTVQVEQSKVLIKEGGVQLLLTIVDTPGFGDAVDNSNCWQPVIDYIDSKFEDYLNAESRVNRRQMPDNRVQCCLYFIAPSGHGLKPLDIEFMKRLHEKVNIIPLIAKADTLTPEECQQFKKQIMKEIQEHKIKIYEFPETDDEEENKLVKKIKDRLPLAVVGSNTIIEVNGKRVRGRQYPWGVAEVENGEHCDFTILRNMLIRTHMQDLKDVTNNVHYENYRSRKLAAVTYNGVDNNKNKGQLTKSPLAQMEEERREHVAKMKKMEMEMEQVFEMKVKEKVQKLKDSEAELQRRHEQMKKNLEAQHKELEEKRRQFEEEKANWEAQQRILEQQNSSRTLEKNKKKGKIF
B3: Septin 2 (protein, UniProt P42208 1-361)
chain: MSKQQPTQFINPETPGYVGFANLPNQVHRKSVKKGFEFTLMVVGESGLGKSTLINSLFLTDLYPERIIPGAAEKIERTVQIEASTVEIEERGVKLRLTVVDTPGYGDAINCRDCFKTIISYIDEQFERYLHDESGLNRRHIIDNRVHCCFYFISPFGHGLKPLDVAFMKAIHNKVNIVPVIAKADTLTLKERERLKKRILDEIEEHSIKIYHLPDAESDEDEDFKEQTRLLKASIPFSVVGSNQLIEAKGKKVRGRLYPWGVVEVENPEHNDFLKLRTMLITHMQDLQEVTQDLHYENFRSERLKRGGRKVENEDMNKDQILLEKEAELRRMQEMIARMQAQMQMQMQGGDSDSGALGQHV
B4: Homer protein homologue (protein, UniProt Q99JP6 1-356)
chain: MSTAREQPIFSTRAHVFQIDPTTKRNWIPAGKHALTVSYFYDATRNVYRIISIGGAKAIINSTVTPNMTFTKTSQKFGQWADSRANTVYGLGFASEQQLTQFAEKFQEVKEAARLAREKSQDGGEFTSTGLALASHQVPPSPLVSTNGPGEEKLFRSQSADTPGPTERERLKKMLSEGSVGEVQWEAEFFALQDSNQRLAGALREANAAATQWRQQLEVQRAEAELLRQRVAELEAQVAVEPVRAGEKEATSQSVEQLEARVQTKDQTLKNQSTGTREAPDTAEREETQQQVQDLETRNAELEQQLRSMECNLEEARAERERARAEVGRAAQLLDVRLFELSELREGLARLAEAAP
B5: Nuclear-interacting partner of Alk (protein, UniProt Q80YV2 1-501)
chain: MAATSEGPLFAASIEKTWGSVVRSPEGTPQKVRELIDEGIVPEEGGTEPKDTAATFQSVDGSPQAEQSPLESTSKEAFFHRVETFSSLKWAGKPPELSPLICAKYGWVTVECDMLKCSSCQAFLCASLQPTFDFGRYKERCAELKKSLCSAHEKFCFWPDSPSPDRFGMLPLGEPAVLISEFLDRFQSLCHLDLQLPSLRPEDLKTMCLTEDAVSALLHLLEDELDFHADDRKTTSKLGSDVQVQATACVLSLCGWACSSLEPTQLSLITCYQCMRKVGLWGFQQIESSMTDLEASFGLTSSPIPGVEGRPEHFPLVPESPRRMMTRSQDATVSPGSEQSEKSPGPIVSRTRSWESSSPVDRPELEAASPTTRSRPVTRSMGTGDSAGVEVPSSPLRRTKRARLCSSSSSDTSPRSFFDPTSQHRDWCPWVNITLVKETKENGETEVDACTPAEPGWKAVLTILLAHKRSNQPAETDSMSLSEKSRKVFRIFRQWESSSSS
B6: Septin 9 (protein, UniProt Q80UG5 1-583)
chain: MKKSYSGVTRTSSGRLRRLADPTGPALKRSFEVEEIEPPNSTPPRRVQTPLLRATVASSSQKFQDLGVKNSEPAARLVDSLSQRSPKPSLRRVELAGAKAPEPMSRRTEISIDISSKQVESTASAAGPSRFGLKRAEVLGHKTPEPVPRRTEITIVKPQESVLRRVETPASKIPEGSAVPATDAAPKRVEIQVPKPAEAPNCPLPSQTLENSEAPMSQLQSRLEPRPSVAEVPYRNQEDSEVTPSCVGDMADNPRDAMLKQAPASRNEKAPMEFGYVGIDSILEQMRRKAMKQGFEFNIMVVGQSGLGKSTLINTLFKSKISRKSVQPTSEERIPKTIEIKSITHDIEEKGVRMKLTVIDTPGFGDHINNENCWQPIMKFINDQYEKYLQEEVNINRKKRIPDTRVHCCLYFIPATGHSLRPLDIEFMKRLSKVVNIVPVIAKADTLTLEERVYFKQRITADLLSNGIDVYPQKEFDEDAEDRLVNEKFREMIPFAVVGSDHEYQVNGKRILGRKTKWGTIEVENTTHCEFAYLRDLLIRTHMQNIKDITSNIHFEAYRVKRLNEGNSAMANGIEKEPEAQEM
B7: E3 ubiquitin ligase Traf7 (enzyme, UniProt Q922B6 1-594)
chain: MPPINTPRRSDSAISVRSLHSESSMSLRSTFSLPEEEEEPEPLVFAEQPSVKLCCQLCCSVFKDPVITTCGHTFCRRCALKSEKCPVDNAKLTVVVNNIAVAEQIGELFIHCRHGCHAAGTGKPGVFEVDPRGCPFTIKLSARKDHESSCDYRPVRCPNNPSCPPLLKMNLEAHLKECEHIKCPHSKYGCTFIGNQDTYETHLETCRFEGLKEFLQQTDDRFHEMHVALAQKDQEIAFLRSMLGKLSEKIDQLEKSLELKFDVLDENQSKLSEDLMEFRRDASMLNDELSHINARLNMGILGSYDPQQIFKCKGTFVGHQGPVWCLCVYSMGDLLFSGSSDKTIKVWDTCTTYKCQKTLEGHDGIVLALCIQGCKLYSGSADCTIIVWDIQNLQKVNTIRAHDNPVCTLVSSHNMLFSGSLKAIKVWDIVGTELKLKKELTGLNHWVRALVAAQSYLYSGSYQTIKIWDIRTLDCIHVLQTSGGSVYSIAVTNHHIVCGTYENLIHVWDIESKEQVRTLTGHVGTVYALAVISTPDQTKVFSASYDRSLRVWSMDNMICTQTLLRHQGSVTALAVSRGRLFSGAVDSTVKVWTC
B8: Septin 10 (protein, UniProt Q8C650 1-452)
chain: MASCDEIKEHPRSLSMCGHVGFESLPDQLVDRSIEQGFCFNILCVGETGIGKSTLINTLFNTNFEELESSHFCPCVRLRAQTYELQESNVRLKLTIVNTVGFGDQINKEDSYQPIVDYIDDQFEAYLQEEVKIKRALFNYHDSRIHVCLYFIAPTGHSLRTLDLLTMKSLDNKVNIIPLIAKADTISKSELQKFKMKLMNELVINGVQIYQFPTDDDTTSKINGAMNGHLPFAVVGSMDEIKVGNKMVKGRQYPWGIVQVENENHCDFVKLREMLICTNMEDLREQTHMRHYELYRRCKLQEMGFVDMGPENKPLSLQETYEAKRHEFYGERQRKEEQMKQMFVQRVKEKEAILKEAERELQAKFEHLKRIHQEERMKLEEKRRMLEEESVAFAKKKATCELFPNQSFLASGSSIRKDKDRKKADGASAFCDCLTAQESVRLCISSPRKDMD

molecular target: Numb (mouse (endogenous in C2C12)); experiment: affinity purification with mass spectrometry; IP of endogenous Numb with goat polyclonal anti-Numb (control: goat IgG) from lysates of 5-day differentiated C2C12 myotubes; 25 mM Tris-HCl pH 7.2, 150 mM NaCl, 1 mM EDTA, 5% glycerol, 0.1% Triton X-100, 4°C; Protein A/G Plus; eluted with 0.3% SDS at 37°C; LC/MS/MS of tryptic peptides; seven independent IPs

binding, binds:
B1
B2
B3
B4
B5
B6
B7
B8
